Results taken from publication doi:10.1101/2020.03.25.006999.
No constants are given. Whether binding was seen depends on the method and setting. In cells and extracts the contact can be indirect. Some results given as binding are weak or reduced against the parent protein; the word gives no strength.

By UniProt entry, the sequences of proteins in these tests, tags left out. Residues count along the entry.
UniProt Q68DV7, residues 24-783: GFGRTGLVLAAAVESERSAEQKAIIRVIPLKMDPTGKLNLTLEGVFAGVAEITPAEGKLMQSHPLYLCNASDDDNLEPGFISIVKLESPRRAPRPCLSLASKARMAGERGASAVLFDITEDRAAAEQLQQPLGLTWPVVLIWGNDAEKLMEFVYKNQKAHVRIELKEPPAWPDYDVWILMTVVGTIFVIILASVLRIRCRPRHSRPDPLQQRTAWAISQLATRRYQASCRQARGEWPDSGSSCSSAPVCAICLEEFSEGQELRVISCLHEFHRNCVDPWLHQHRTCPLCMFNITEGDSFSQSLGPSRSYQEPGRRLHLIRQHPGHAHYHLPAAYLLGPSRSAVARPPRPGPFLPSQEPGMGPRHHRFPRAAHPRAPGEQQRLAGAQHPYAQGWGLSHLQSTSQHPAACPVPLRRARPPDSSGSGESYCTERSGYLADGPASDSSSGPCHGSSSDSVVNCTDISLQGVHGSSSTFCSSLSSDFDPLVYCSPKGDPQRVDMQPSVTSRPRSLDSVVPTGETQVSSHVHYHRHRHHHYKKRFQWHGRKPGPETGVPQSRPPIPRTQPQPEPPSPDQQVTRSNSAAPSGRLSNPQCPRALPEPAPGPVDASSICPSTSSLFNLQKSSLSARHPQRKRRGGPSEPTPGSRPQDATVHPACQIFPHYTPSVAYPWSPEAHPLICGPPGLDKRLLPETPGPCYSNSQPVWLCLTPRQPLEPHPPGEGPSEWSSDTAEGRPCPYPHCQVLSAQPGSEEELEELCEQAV
UniProt Q9ULT6, residues 56-936: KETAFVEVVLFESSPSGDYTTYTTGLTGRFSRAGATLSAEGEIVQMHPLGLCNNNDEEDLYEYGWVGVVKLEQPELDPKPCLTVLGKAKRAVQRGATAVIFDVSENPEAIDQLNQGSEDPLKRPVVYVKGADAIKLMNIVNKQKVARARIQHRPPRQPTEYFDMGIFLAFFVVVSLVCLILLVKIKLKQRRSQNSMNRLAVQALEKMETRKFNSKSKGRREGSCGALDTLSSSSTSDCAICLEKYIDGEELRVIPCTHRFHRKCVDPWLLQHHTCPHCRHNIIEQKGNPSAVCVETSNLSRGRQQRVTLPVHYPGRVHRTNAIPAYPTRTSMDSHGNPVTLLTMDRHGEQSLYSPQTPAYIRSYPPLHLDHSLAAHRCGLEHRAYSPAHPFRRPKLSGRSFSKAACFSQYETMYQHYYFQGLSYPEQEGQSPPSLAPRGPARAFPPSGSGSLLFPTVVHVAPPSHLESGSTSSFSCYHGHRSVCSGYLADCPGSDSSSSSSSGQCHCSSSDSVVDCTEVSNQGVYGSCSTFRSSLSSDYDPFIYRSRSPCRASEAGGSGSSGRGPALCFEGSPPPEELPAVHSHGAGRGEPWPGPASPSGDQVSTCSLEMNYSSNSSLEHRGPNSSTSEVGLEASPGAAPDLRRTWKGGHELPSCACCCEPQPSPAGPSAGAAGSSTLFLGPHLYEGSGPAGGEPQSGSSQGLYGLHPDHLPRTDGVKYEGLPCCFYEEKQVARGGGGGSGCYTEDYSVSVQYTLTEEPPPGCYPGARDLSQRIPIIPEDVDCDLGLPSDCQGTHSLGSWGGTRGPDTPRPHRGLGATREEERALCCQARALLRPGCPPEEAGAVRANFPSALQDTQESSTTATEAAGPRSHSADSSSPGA

Tests used:
[1] = target: Myc-FLAG-tagged RNF43 (wild type) (human) (UniProt Q68DV7); assay: co-IP
[2] = target: RNF43 (wild type), co-expressed as two differently tagged copies: 3XFLAG-RNF43 and RNF43-MYC (human) (UniProt Q68DV7); assay: co-IP

| binding [1] | binding [2] | Substance |
| --- | --- | --- |
| binds |  | HA-ZNRF3 (from UniProt Q9ULT6 56-936) |
|  | binds | RNF43 (wild type), co-expressed as two differently tagged copies: 3XFLAG-RNF43 and RNF43-MYC (from UniProt Q68DV7 24-783) |
